The nature of the data set: general procedure: Boc solid-phase peptide synthesis; 4-methylbenzhydrylamine (MBHA) resin, 200-400 mesh, 1% DVB, 0.45 mmol/g; DIC and HOBt (solid phase); EDC and HOBt (solution template coupling). Particulars: whole synthesis, on resin substitution.
In turn, Ac-(Gly-Nleu-Pro)3 -NH2 gave an isolated yield of 8%.

In turn, Ac-(Gly-Nleu-Pro)10 -NH2 showed an isolated yield of 12%.

Substance Ac-(Gly-Nleu-Pro)6 -NH2 showed an isolated yield of 9%.

The record behind these values is patent publication US6329506 (dated 2001).
